Assay results taken from article PMC10530651, “Mechanisms of Regulation of the CHRDL1 Gene by the TWIST2 and ADD1/SREBP1c Transcription Factors”.
No constants are given. Whether binding was seen depends on the method and setting. Some entries that bind do so weakly or less than the wild type. Where a sequence is shown, tags or fusion partners need not be part of it.

Chains of the proteins cited; added tags and fusions are not shown.
UniProt P15923: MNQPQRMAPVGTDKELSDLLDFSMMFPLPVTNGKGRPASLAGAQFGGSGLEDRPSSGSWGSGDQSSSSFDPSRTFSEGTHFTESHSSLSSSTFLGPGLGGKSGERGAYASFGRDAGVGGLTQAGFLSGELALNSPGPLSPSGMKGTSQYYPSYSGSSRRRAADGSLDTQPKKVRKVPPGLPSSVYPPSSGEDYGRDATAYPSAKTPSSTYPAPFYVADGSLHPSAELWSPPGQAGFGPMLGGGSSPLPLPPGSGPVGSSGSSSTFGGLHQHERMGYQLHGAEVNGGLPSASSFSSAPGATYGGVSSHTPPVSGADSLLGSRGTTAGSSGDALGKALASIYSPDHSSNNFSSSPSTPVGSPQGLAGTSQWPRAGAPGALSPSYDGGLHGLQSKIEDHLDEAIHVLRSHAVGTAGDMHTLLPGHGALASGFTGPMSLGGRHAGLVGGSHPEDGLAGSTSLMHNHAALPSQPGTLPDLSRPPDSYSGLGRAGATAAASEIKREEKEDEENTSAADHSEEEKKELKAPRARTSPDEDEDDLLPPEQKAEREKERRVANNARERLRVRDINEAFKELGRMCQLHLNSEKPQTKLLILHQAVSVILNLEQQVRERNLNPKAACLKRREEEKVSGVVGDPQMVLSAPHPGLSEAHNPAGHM
UniProt Q15672: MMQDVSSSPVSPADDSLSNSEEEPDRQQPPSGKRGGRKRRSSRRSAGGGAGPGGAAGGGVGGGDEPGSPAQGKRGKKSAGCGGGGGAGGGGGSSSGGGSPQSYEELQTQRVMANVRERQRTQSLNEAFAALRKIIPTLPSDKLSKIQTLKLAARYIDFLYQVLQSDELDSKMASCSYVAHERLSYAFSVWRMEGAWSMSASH

Biological target: E12 (UniProt P15923)
Experiment: native gel or EMSA; TWIST1, TWIST2 or Q119X plasmid and E12 plasmid combined in one in vitro TnT reaction; products incubated with 32P-labelled CHRDL1 probe #5 in 20 mM HEPES pH 7.9, 60 mM KCl, 1 mM MgCl2, 0.5 mM DTT, 10% glycerol; 6% native polyacrylamide gel at 4 °C; specific (CH2700EA) and non-specific (SP1) oligonucleotide competitors, anti-Myc supershift; heterodimers seen as DNA-bound complexes

| Molecule | binding |
| --- | --- |
| human TWIST1, Myc-tagged (from UniProt Q15672 1-202) | binds |
| human wild-type TWIST2, N-terminally Myc-tagged (protein, UniProt Q8WVJ9 1-160) MEEGSSSPVSPVDSLGTSEEELERQPKRFGRKRRYSKKSSEDGSPTPGKRGKKGSPSAQSFEELQSQRILANVRERQRTQSLNEAFAALRKIIPTLPSDKLSKIQTLKLAARYIDFLYQVLQSDEMDNKMTSCSYVAHERLSYAFSVWRMEGAWSMSASH | binds |
| TWIST2 Q119X mutant protein, Myc-tagged (domain or fragment, UniProt Q8WVJ9 1-118) MEEGSSSPVSPVDSLGTSEEELERQPKRFGRKRRYSKKSSEDGSPTPGKRGKKGSPSAQSFEELQSQRILANVRERQRTQSLNEAFAALRKIIPTLPSDKLSKIQTLKLAARYIDFLY | binds |
